Experimental data published in PMC11915804, “In situ structures of the contractile nanomachine myophage Mu in both its extended and contracted states” (Journal of Virology, 2025).
No constants are given. Whether binding was seen depends on the method and setting.

Target: T1, tail tube protein gp40 (phage Mu) (UniProt P79679)
T1 sequence: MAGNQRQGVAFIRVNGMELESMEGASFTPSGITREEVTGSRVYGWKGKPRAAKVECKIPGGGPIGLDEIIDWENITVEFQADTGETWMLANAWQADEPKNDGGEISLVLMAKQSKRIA
Assay: condition: only contracted state (virions treated with 5 M urea); cryo-EM structure; purified phage Mu virions in the contracted state: diluted 10-fold with 5 M urea, 2 h at 37°C, urea removed by ultrafiltration; baseplate, DNA and TMP lost; 3.6 Å (portal-adaptor), 3.8 Å (terminator-tail); both purified

B1: tail sheath protein gp39 (natural protein, phage Mu, UniProt P79678 1-495, looked up)
chain: MSDISFNAIPSDVRVPLTYIEFDNSNAVSGTPAPRQRVLMFGQSGSKASAAPNVPVRIRSGSQASAAFGQGSMLALMADAFLNANRVAELWCIPQGNGTGNAAVGEISLSGTAGENGSLVTYIAGQRLAVSVAAGATGAALADLLVARIKGQPDLPVTAEVRADSGDDDTHADVVLSAKFTGALSAVDVRWNYYAGETTPYGIITAFKAASGKNGNPDISASIAGMGDLQYKYIVMPYTDEPNLNLLRTELQERWGPVNQADGFAVTVLSGTYGDISTFGVSRNDHLISCMGIAGAPEPSYLYAATLCAVASQALSIDPARPLQTLTLPGRMPPAVGDRFTWSERNALLFDGISTFNVNDGGEMQIERMITMYRTNKYGDSDPSYLNVNTIATLSYLRYSLRTRITQKFPNYKLASDGTRFATGQAVVTPSVIKTELLALFEEWENAGLVEDFDTFKEELYVARNKDDKDRLDVLCGPNLINQFRIFAAQVQFIL
notes: tail sheath protein gp39 of myophage Mu, as it stands in the virion; Hexameric rings, 30 of them stacked in the tail; Model deposited here; source: phage Mu virions grown on E. coli (ATCC 23724), purified (PEG 8000/NaCl precipitation, CsCl gradient)
  binding: no binding
